# Library screen at single concentrations

Chains of the proteins cited; added tags and fusions are not shown. Residues count along the entry.
UniProt A4I591, 1-473: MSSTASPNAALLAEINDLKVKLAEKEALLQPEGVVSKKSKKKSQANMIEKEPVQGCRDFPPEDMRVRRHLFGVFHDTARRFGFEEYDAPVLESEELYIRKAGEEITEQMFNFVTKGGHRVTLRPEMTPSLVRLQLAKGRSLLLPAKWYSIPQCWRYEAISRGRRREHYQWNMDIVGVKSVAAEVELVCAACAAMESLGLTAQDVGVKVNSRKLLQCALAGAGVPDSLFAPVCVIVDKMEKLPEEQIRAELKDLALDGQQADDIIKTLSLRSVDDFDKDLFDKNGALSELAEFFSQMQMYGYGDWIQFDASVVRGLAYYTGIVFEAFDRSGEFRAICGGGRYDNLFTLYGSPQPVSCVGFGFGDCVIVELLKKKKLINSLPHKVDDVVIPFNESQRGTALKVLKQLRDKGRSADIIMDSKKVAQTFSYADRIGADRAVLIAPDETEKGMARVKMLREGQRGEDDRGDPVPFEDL
UniProt P9WFT3, whole entry: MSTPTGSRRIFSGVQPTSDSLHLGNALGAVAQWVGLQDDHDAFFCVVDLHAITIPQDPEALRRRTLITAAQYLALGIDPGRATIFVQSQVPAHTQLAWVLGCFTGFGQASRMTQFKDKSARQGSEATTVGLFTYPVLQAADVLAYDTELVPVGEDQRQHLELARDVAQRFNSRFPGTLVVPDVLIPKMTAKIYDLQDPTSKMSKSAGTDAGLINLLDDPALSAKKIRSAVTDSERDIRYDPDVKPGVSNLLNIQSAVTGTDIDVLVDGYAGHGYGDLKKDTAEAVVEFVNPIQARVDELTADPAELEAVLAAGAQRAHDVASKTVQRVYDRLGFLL
UniProt P9WNZ1, whole entry: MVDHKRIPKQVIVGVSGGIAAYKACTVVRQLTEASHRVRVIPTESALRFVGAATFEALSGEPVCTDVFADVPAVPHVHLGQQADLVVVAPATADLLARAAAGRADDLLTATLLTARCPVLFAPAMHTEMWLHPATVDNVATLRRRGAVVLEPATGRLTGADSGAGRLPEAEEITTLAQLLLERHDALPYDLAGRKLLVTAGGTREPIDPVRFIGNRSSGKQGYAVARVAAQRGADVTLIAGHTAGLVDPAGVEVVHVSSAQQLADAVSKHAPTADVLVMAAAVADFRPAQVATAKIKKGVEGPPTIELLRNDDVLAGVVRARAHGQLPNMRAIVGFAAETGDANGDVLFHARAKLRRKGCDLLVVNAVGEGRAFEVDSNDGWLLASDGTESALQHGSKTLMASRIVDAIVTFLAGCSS

LiHisRS: 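Histidine-tRNA ligase, Leishmania infantum (UniProt A4I591). Enzyme assay of histidyl-tRNA synthetase; the read-out is not stated. Concentration: 30 µM. Direction is inferred from retests: higher values go with stronger inhibition. The assay is labelled LdHisRS but filed under L. infantum. About 69,000 compounds were tested under these conditions; 0.6% (about 410) showed 50% or more at least once.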
MtTrpRS: 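Enzyme assay of tryptophanyl-tRNA synthetase; the read-out is not stated. Target: Tryptophan-tRNA ligase, Mycobacterium tuberculosis (UniProt P9WFT3). Tested at 10 µM. Direction is not recorded; retested compounds ran higher, which suggests that high means inhibition. About 65,000 compounds were tested under these conditions; 0.098% (about 64) showed 50% or more at least once.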
Toxoplasma: 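Assay of Toxoplasma gondii numbers, read through their beta-galactosidase reporter with a colour substrate. Compounds at 10 µM. The record gives no direction; the compounds picked for IC50 retests had high values, so higher reads as fewer parasites. About 67,000 compounds were tested under these conditions; 0.38% (about 260) showed 50% or more at least once.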
CoaBC: 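Coenzyme A biosynthesis protein CoaBC, Mycobacterium tuberculosis (UniProt P9WNZ1). Enzyme assay of CoaBC with a phosphate dye (Biomol Green) read at 650 nm. Compounds at 30 µM. Direction is inferred from only a few compounds that gave an IC50; most scored high, so higher reads as stronger inhibition. Most strong results did not repeat in a second test. Size under these conditions: about 67,000 compounds, about 40 of them at 50% or above in at least one test.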

Results are given as percent effect.
How 0% and 100% were set is not recorded. Most values in the screen are low, and negative values occur.
Compounds were drawn at random from those tested, without regard to their results.
A dash means the value is not listed here; it may have been measured.

Compound,LiHisRS,MtTrpRS,Toxoplasma,CoaBC
O=C(Nc1cc(-c2ccccc2)on1)N1CC[C@H](O)C1,7.937,-1.982,8.827,-0.4969
CSCCCNC(=O)C(c1ccccc1C)N(C)C (stereo not given),16.48,-0.154,30.15,9.906
NC(=O)C(CNC(=O)CCc1ccccc1)Cc1ccc(F)cc1 (stereo not given),24.72,7.777,9.182,1.564
Cc1nc(N)c2ccc(C3CCCN3)nc2n1 (stereo not given),8.392,0.06528,-,11.14
Cc1ncsc1C(=O)NCCSCc1cccs1,6.154,-0.4859,7.539,3.035
[H][C@@]12COC[C@]1([H])[C@@H](OCC1CCOCC1)CN2c1ncccn1,-,-,-1.241,-
CCN1CCCC(O)(CN(C)Cc2c(C)nn(C)c2C)C1 (stereo not given),20,2.169,-16.28,-0.6329
Cn1cnnc1-c1cncc(NCc2cccc3c2OCO3)c1,14.29,5.133,-5.114,3.74
Cc1cc(NC(=O)NCCc2cccs2)n(C)n1,12.5,1.896,11.46,-1.266
CN(C)c1ncc(-c2ccc(F)cc2)c(C2CNCCO2)n1.Cl (stereo not given),-,-,-3.467,-
Cc1cnn(CC2CCCCN2Cc2nnc(C3CC3)n2C)c1 (stereo not given),5.405,1.072,3.656,7.572
Cc1noc(OCc2csc(C)n2)n1,29.58,-4.541,4.099,-
O=C(O)C(F)(F)F.[H][C@@]12CCN(c3ccncn3)[C@]1([H])CC[C@@H](C(=O)N1CCCCO1)O2,-,-,6.745,-
O=C(c1nn[nH]c1Nc1cccc(Cl)c1)N1CCSCC1,-3.571,-1.077,13.64,5.202
Cl.c1cc(CNCc2ccc(-n3cncn3)nc2)cc(OC2CCCC2)c1,-,-,0.4337,-
Cc1nc2n(n1)CC(NCc1nnc(C(C)(C)C)o1)CC2 (stereo not given),6.349,-0.4955,13.33,1.739
Cc1ccc(S(=O)(=O)n2ccn(C(=O)COc3ccccc3)c2=O)cc1,7.895,-4.703,7.375,0
CN(C)S(=O)(=O)N1CCCCC1CCc1ccc(O)cc1 (stereo not given),23.29,3.293,-0.7836,1.468
O=C(NC1CCCOc2cc(Cl)ccc21)c1ccc(=O)[nH]n1 (stereo not given),2.381,-2.16,-13.99,8.738
Cc1cc(C2CCCN(C(=O)CN3CCN(C)CC3)C2)n[nH]1 (stereo not given),15.38,-3.79,1.508,13.15
Cc1ccc(-c2cc(CS(=O)(=O)NC3CCCNC3=O)on2)cc1 (stereo not given),17.33,-1.698,1.034,-0.1988
COc1ncccc1NC(=O)NCC1CC1,4.959,3.44,-13.71,3.62
Cc1ccc(NC2CCN(C(=O)c3ccnc(N(C)C)c3)CC2)nn1,21.15,6.091,9.599,2.628
O=C(O)C(F)(F)F.O=C(O)C(F)(F)F.c1csc(CN2CCCC3(COCCN(Cc4c[nH]nn4)C3)C2)c1 (stereo not given),-,-,-8.62,-
O=S(=O)(C/C=C/c1ccccc1)Cc1nc(C2CC2)no1,6.838,1.213,-10.74,2.991
Cc1occc1C(=O)N1CCC2(CCN(Cc3cccs3)C2)CC1.O=C(O)C(F)(F)F,-,-,6.088,-
O=C1CCCN1CCC1CCN(C2CCCNC2)CC1 (stereo not given),-7.143,2.166,1.373,-23.57
[H][C@]12C[C@@H](C(=O)N(C)Cc3ccccn3)CO[C@@]1([H])CCN(CCOC)C2,-,-,-5.002,-
O=C(c1cnccn1)N1CC[C@H]2[C@H]1CCN2S(=O)(=O)C1CC1,1.754,-8.038,-,4.139
CC(C)(O)CCc1ccc(C(=O)NCC2CCCOC2)cc1 (stereo not given),11.48,0,9.407,-1.79
Cc1noc(CN(Cc2ccc3c(c2)OCO3)Cc2ccc(C)o2)n1,7.143,-0.3912,1.206,5.101
CN(C)CCn1c(=O)oc2ccc(NC(=O)N3CCCCCC3)cc21,59.82,3.114,28.72,4.132
Cc1ccnc(C2CN(c3ccnc(C)n3)C2)n1,11.59,3.041,-13.65,7.622
Cc1ncc(CC(=O)N2CCC3(CCC(=O)N(C4CC4)C3)CC2)c(=O)[nH]1,15.79,-0.5198,-5.746,-3.629
COc1ccc(C(C#N)NC(=O)CC2=CCCCC2)c(OC)c1 (stereo not given),2.74,-1.04,0.8348,1.446
CN(CC(=O)NC(C)(C)C)Cc1nc(-c2ccccc2)c[nH]1,-15.83,8.256,-4.338,-
C[C@@H]1CN(C(=O)c2cnc(C3CC3)nc2)CC[C@@]1(O)C1CCOCC1,13.46,-0.5418,-4.616,7.036
O=C(c1cccnc1)N1CC[C@H](OCC2CC2)[C@@H]1Cc1cccnc1,15.09,4.302,-,1.65
CCn1ncc2c1CCCC2NCc1cc(OC)cc(OC)c1 (stereo not given),6.78,-3.782,1.78,1.837
O=C(O)C(F)(F)F.O=C(O)C(F)(F)F.O=C(O)C(F)(F)F.[H][C@@]12CN(Cc3ccncc3)C[C@]1([H])[C@@H](OC)CCN2Cc1c(C)noc1C,-,-,8.793,-
CC(CNC(=O)Nc1ccc(N(C)C)nc1)Cn1cccn1 (stereo not given),22.12,0.3791,-6.514,1.266
CC(C)(O)CCc1cccc(C(=O)N2CCC[C@H]2CN2CCCC2)c1,24.47,0.3871,-17.24,7.071
CO[C@H]1CCN(C(=O)c2cc(C)on2)C[C@@H]1Cc1ccccc1,1.923,-0.5814,-17.12,1.673
CC(COc1ccccc1)NCc1nncn1C1CCCCC1 (stereo not given),18.18,0.277,-7.739,6.903
[H][C@]12CN(CCOC)C(=O)[C@@]1([H])CN(S(=O)(=O)c1cccs1)C2,-,-,-10.28,-

Repeated from the top, 5 entries:

Compound	LiHisRS	MtTrpRS	Toxoplasma	CoaBC
O=C(Nc1cc(-c2ccccc2)on1)N1CC[C@H](O)C1	7.937	-1.982	8.827	-0.4969
CSCCCNC(=O)C(c1ccccc1C)N(C)C (stereo not given)	16.48	-0.154	30.15	9.906
NC(=O)C(CNC(=O)CCc1ccccc1)Cc1ccc(F)cc1 (stereo not given)	24.72	7.777	9.182	1.564
Cc1nc(N)c2ccc(C3CCCN3)nc2n1 (stereo not given)	8.392	0.06528	-	11.14
Cc1ncsc1C(=O)NCCSCc1cccs1	6.154	-0.4859	7.539	3.035

Source: ChEMBL document CHEMBL3988442, “University of Dundee, Small-Polar-MMV Screening Library” (2021).